Data: PubChem BioAssay AID504842 (National Center for Advancing Translational Sciences (NCATS), 2011)
Screen size: about 330,000 compounds; about 100 (0.03%) were called active. Inconclusive results, whose numbers are uncertain, are shown with a selection of clear calls. The call rests on the fitted dose curve; in most records, active means well fitted inhibition curve with a large enough effect; inconclusive means small, poorly fitted or top-dose-only effect; inactive means flat fitted curve, though single readings scatter. A potency beside an inconclusive call is a rough fit, not a confirmed value.

test system: Chaperonin Mm-Cpn (Methanococcus maripaludis); experiment: Inhibitors of TCP-1 ring complex (TRiC) of Methanococcus maripaludis (MmCpn): qHTS; conditions: purified Mm-Cpn ATPase, ADP Transcreener TR-FRET; series mostly up to 76.9 µM; activity, negative = inhibition: at the top concentration; further: nearly all actives have a fitted effect of over 80% in size;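 on potency: enzyme at 25 nM with ATP substrate at 10 µM during the reaction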
Summary of the method: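 Reaction buffer contained 30 mM Tris pH 7.4, 100 mM KCl, 5 mM MgCl2 and 1 mM DTT. Mm-CPN (25 nM final) hydrolysed 10 uM ATP over 30 min at 37°C; ADP was read by HTRF.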
On the % scale 0 is the no-effect control and ±100 the full control effect; potency means the concentration at half of the fitted maximal effect.

Potency, inactive:
O=C(O)CCSc1ccc2ccccc2n1

Potency, inconclusive:
CC1CCC(NC(=O)CCS(=O)(=O)c2ccc3c(c2)NC(=O)C(C)S3)CC1 (stereo not given) 22.4 µM [inhibitor, single point], CN(CC(=O)Nc1ccc(F)c(Cl)c1)S(=O)(=O)c1ccc2c(c1)n(C)c(=O)c(=O)n2C 100 µM [inhibitor, single point], Cc1cc(C2=NNC(=NC3CC3)SC2)c(C)n1-c1ccccc1F 12.6 µM [inhibitor, single point], Cc1ccc(S(=O)(=O)NCc2ccc3c(c2)cc(C)n3C)cc1 89.1 µM [inhibitor, single point], O=C(COC(=O)CCSc1ccc(Cl)cc1)NCc1ccco1 7.08 µM [inhibitor, single point], CC(C)Oc1ccc(C(=O)NC(=S)N2CCOCC2)cc1 17.8 µM [inhibitor, single point], CC(=O)N(CCC(c1ccccc1)c1ccco1)Cc1cccs1 (stereo not given) 316 µM [inhibitor, partial curve, poor fit], Cc1cc(NC(=O)CCC(=O)N(c2ccc(F)cc2)C(C(=O)NC2CCCC2)c2ccccc2)no1 (stereo not given) 22.4 µM [inhibitor, single point], CSCC[C@H](NC(=O)[C@H]1CC[C@H](CNC(=O)[C@@H]2CCCN2)CC1)C(=O)O 63.1 µM [inhibitor, single point], O=C(c1ccc(Cl)cc1)c1oc2ccccc2c1CS(=O)(=O)c1ccccc1 11.2 µM [inhibitor, single point], CC1(C(=O)NC2CCCCCCC2)CC1(Cl)Cl (stereo not given) 70.8 µM [inhibitor, single point], CC(=O)c1c(C)nc(-c2ccc(Cl)cc2)nc1N 100 µM [inhibitor, partial curve, poor fit]

activity, negative = inhibition, inactive:
O=C(Nc1ccc(-c2n[nH]c(=S)o2)cc1)c1ccccc1 -3.03%, CC(C)(C)C1CCC(N2CCN(c3ccccc3)CC2)CC1 (stereo not given) -4.09%, CN(CC(=O)Nc1ccc(F)cc1)C(=O)Cn1c(=O)oc2ccccc21 -0.182%, CC1(C)Cc2cccc(OCC(=O)N3CCN(c4ccccc4F)CC3)c2O1 -0.8%, Clc1cccc(N2CCN(Cc3nnc(-c4ccccc4)o3)CC2)c1 1.72%, CCCCCCCC[n+]1c(C)n(-c2ccccc2)c2ccc(NC(C)=O)cc21 0.143%, O=C(Nc1ccc(-c2nc3ccccc3o2)cc1)C1CCCO1 (stereo not given) 1.05%
